These are yes or no findings as the source states them, for the method shown. In cells and extracts the contact can be indirect. These calls come from enrichment with a bait or labelling near it, and not all partners need be listed.

B1: CDC5/MAC1 (protein, UniProt P92948 1-844)
chain: MRIMIKGGVWKNTEDEILKAAVMKYGKNQWARISSLLVRKSAKQCKARWYEWLDPSIKKTEWTREEDEKLLHLAKLLPTQWRTIAPIVGRTPSQCLERYEKLLDAACTKDENYDAADDPRKLRPGEIDPNPEAKPARPDPVDMDEDEKEMLSEARARLANTRGKKAKRKAREKQLEEARRLASLQKRRELKAAGIDGRHRKRKRKGIDYNAEIPFEKRAPAGFYDTADEDRPADQVKFPTTIEELEGKRRADVEAHLRKQDVARNKIAQRQDAPAAILQANKLNDPEVVRKRSKLMLPPPQISDHELEEIAKMGYASDLLAENEELTEGSAATRALLANYSQTPRQGMTPMRTPQRTPAGKGDAIMMEAENLARLRDSQTPLLGGENPELHPSDFTGVTPRKKEIQTPNPMLTPSMTPGGAGLTPRIGLTPSRDGSSFSMTPKGTPFRDELHINEDMDMHESAKLERQRREEARRSLRSGLTGLPQPKNEYQIVAQPPPEESEEPEEKIEEDMSDRIAREKAEEEARQQALLKKRSKVLQRDLPRPPAASLAVIRNSLLSADGDKSSVVPPTPIEVADKMVREELLQLLEHDNAKYPLDDKAEKKKGAKNRTNRSASQVLAIDDFDENELQEADKMIKEEGKFLCVSMGHENKTLDDFVEAHNTCVNDLMYFPTRSAYELSSVAGNADKVAAFQEEMENVRKKMEEDEKKAEHMKAKYKTYTKGHERRAETVWTQIEATLKQAEIGGTEVECFKALKRQEEMAASFRKKNLQEEVIKQKETESKLQTRYGNMLAMVEKAEEIMVGFRAQALKKQEDVEDSHKLKEAKLATGEEEDIAIAMEASA
B2: MAC3B (protein, UniProt O22785 1-525)
chain: MNCAISGEVPVEPVVSTKSGLLFERRLIERHISDYGKCPVTGEPLTIDDIVPIKTGEIIKPKTLHTASIPGLLGTFQNEWDGLMLSNFALEQQLHTARQELSHALYQHDSACRVIARLKKERDEARQLLAEVERHIPAAPEAVTANAALSNGKRAAVDEELGPDAKKLCPGISAEIITELTDCNAALSQKRKKRQIPQTLASIDTLERFTQLSSHPLHKTNKPGICSMDILHSKDVIATGGVDATAVLFDRPSGQILSTLTGHSKKVTSVKFVGDSDLVLTASADKTVRIWRNPGDGNYACGYTLNDHSAEVRAVTVHPTNKYFVSASLDGTWCFYDLSSGSCLAQVSDDSKNVDYTAAAFHPDGLILGTGTSQSVVKIWDVKSQANVAKFDGHTGEVTAISFSENGYFLATAAEDGVRLWDLRKLRNFKSFLSADANSVEFDPSGSYLGIAASDIKVYQTASVKAEWNLIKTLPDLSGTGKATCVKFGSDAQYVAVGSMDRNLRIFGLPGDEKANVDDDSAQDS
B3: MAC3A (protein, UniProt Q94BR4 1-523)
chain: MNCAISGEVPEEPVVSKKSGLLYEKRLIQTHISDYGKCPVTGEPHTLDDIVPIKTGKIVKPKPLHTASIPGLLGTFQTEWDSLMLSNFALEQQLHTARQELSHALYQHDAACRVIARLKKERDESRQLLAEAERQLPAAPEVATSNAALSNGKRGIDDGEQGPNAKKMRLGISAEVITELTDCNAALSQQRKKRQIPKTLASVDALEKFTQLSSHPLHKTNKPGIFSMDILHSKDVIATGGIDTTAVLFDRPSGQILSTLTGHSKKVTSIKFVGDTDLVLTASSDKTVRIWGCSEDGNYTSRHTLKDHSAEVRAVTVHATNKYFVSASLDSTWCFYDLSSGLCLAQVTDASENDVNYTAAAFHPDGLILGTGTAQSIVKIWDVKSQANVAKFGGHNGEITSISFSENGYFLATAALDGVRLWDLRKLKNFRTFDFPDANSVEFDHSGSYLGIAASDIRVFQAASVKAEWNPIKTLPDLSGTGKATSVKFGLDSKYIAVGSMDRNLRIFGLPDDDNTEDSAQDS
B4: GFA1/MEE5/CLO (protein, UniProt Q9LNC5 1-987)
chain: MESSLYDEFGNYVGPEIESDRDSDDEVEDEDLQDKHLEENGSDGEQGPGGSNGWITTINDVEMENQIVLPEDKKYYPTAEEVYGEDVETLVMDEDEQPLEQPIIKPVRDIRFEVGVKDQATYVSTQFLIGLMSNPALVRNVALVGHLQHGKTVFMDMLVEQTHHMSTFNAKNEKHMKYTDTRVDEQERNISIKAVPMSLVLEDSRSKSYLCNIMDTPGHVNFSDEMTASLRLADGAVLIVDAAEGVMVNTERAIRHAIQDHLPIVVVINKVDRLITELKLPPRDAYYKLRHTIEVINNHISAASTTAGDLPLIDPAAGNVCFASGTAGWSFTLQSFAKMYAKLHGVAMDVDKFASRLWGDVYYHSDTRVFKRSPPVGGGERAFVQFILEPLYKIYSQVIGEHKKSVETTLAELGVTLSNSAYKLNVRPLLRLACSSVFGSASGFTDMLVKHIPSPREAAARKVDHSYTGTKDSPIYESMVECDPSGPLMVNVTKLYPKSDTSVFDVFGRVYSGRLQTGQSVRVLGEGYSPEDEEDMTIKEVTKLWIYQARYRIPVSSAPPGSWVLIEGVDASIMKTATLCNASYDEDVYIFRALQFNTLPVVKTATEPLNPSELPKMVEGLRKISKSYPLAITKVEESGEHTILGTGELYLDSIMKDLRELYSEVEVKVADPVVSFCETVVESSSMKCFAETPNKKNKITMIAEPLDRGLAEDIENGVVSIDWNRKQLGDFFRTKYDWDLLAARSIWAFGPDKQGPNILLDDTLPTEVDRNLMMAVKDSIVQGFQWGAREGPLCDEPIRNVKFKIVDARIAPEPLHRGSGQMIPTARRVAYSAFLMATPRLMEPVYYVEIQTPIDCVTAIYTVLSRRRGHVTSDVPQPGTPAYIVKAFLPVIESFGFETDLRYHTQGQAFCLSVFDHWAIVPGDPLDKAIQLRPLEPAPIQHLAREFMVKTRRRKGMSEDVSGNKFFDEAMMVELAQQTGDLHLQMI

The target in the experiment is CWC15-3xGFP (Arabidopsis thaliana). Description: affinity purification with mass spectrometry; GFP-tagged CWC15 precipitated with GFP-Trap magnetic beads from lysate of seedlings 6 dag (150 mM NaCl, 50 mM Tris pH 7.5, 2 mM EDTA, 0.5% Triton X-100), 3 h at 4 °C; LC-MS/MS; compared with precipitates of GFP-tagged IMPα6 and ARF5.
For the molecule B1, the binding entry is given as “binds”.
As to B2, the binding entry was “binds”.
Then B3, with “binds”.
As for B4, the entry is “binds”.

For the origin of these results see PMC7415139.
